The text below walks through data of article PMC7862700.

Amino acid sequences for entries named in this document (tags omitted). A change or cut given only in a name is not applied to a line headed by its entry.
UniProt Q00613: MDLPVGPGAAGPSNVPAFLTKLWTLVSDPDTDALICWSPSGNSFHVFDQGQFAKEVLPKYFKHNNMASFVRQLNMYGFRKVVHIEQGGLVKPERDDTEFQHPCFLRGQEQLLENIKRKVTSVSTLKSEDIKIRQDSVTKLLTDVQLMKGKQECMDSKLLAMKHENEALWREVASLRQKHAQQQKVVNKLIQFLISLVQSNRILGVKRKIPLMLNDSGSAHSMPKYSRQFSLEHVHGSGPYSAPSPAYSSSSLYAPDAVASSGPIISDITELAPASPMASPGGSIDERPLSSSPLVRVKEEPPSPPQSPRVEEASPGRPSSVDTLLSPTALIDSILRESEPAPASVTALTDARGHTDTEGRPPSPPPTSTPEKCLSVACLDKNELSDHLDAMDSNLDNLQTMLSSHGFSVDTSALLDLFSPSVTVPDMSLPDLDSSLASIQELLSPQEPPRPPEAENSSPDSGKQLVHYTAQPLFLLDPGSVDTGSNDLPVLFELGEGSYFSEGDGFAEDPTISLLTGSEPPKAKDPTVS

Only a part is listed here, and it is no random draw. For part of these data: At the low end of the ranking the order means little. The list shows a part of the results. For part of these data: Construct or isoform of the protein are uncertain.

One assay deals with HSF1 (UniProt Q00613). Put plainly: DAPPL (digital affinity profiling via proximity ligation, sequencing). The settings on record: 10 mM Tris-HCl pH 7.5, 50 mM NaCl, 1 mM DTT, 4% glycerol, room temperature, 30 min; GST-TFs on glutathione beads, 16-mer random dsDNA library, 0.1% …; high values mean tight binding; double strand, one strand shown; scale: fold enrichment (6-mer frequency, TF over GST control).

The target of the next assay is T1, ELF2 (UniProt Q15723).
T1 sequence: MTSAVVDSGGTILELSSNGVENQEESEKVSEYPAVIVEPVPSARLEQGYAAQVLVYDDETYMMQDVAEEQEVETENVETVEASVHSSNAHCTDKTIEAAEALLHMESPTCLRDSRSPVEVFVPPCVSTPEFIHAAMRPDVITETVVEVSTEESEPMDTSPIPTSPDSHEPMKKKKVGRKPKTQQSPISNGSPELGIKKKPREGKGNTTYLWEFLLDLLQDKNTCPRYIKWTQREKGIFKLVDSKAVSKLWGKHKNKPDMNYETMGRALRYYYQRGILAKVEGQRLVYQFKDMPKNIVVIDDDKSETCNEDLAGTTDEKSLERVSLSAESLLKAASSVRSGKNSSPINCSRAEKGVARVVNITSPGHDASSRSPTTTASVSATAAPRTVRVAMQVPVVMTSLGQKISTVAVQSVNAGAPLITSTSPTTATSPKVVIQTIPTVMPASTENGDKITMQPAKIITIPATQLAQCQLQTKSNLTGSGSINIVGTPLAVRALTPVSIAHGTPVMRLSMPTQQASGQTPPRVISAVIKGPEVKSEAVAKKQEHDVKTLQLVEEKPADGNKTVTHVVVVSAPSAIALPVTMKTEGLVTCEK
The assay is described as above. The settings on record: 10 mM Tris-HCl pH 7.5, 50 mM NaCl, 1 mM DTT, 4% glycerol, room temperature, 30 min; GST-TFs on glutathione beads, 16-mer random dsDNA library, 0.1% …; high values mean tight binding; double strand, one strand shown; scale: fold enrichment (6-mer frequency, TF over GST control).

Take GGTACA: the results for the binding signal with HSF1 and with ELF2 were 0.862 and 1.02, respectively.

On to TGGACA, for which the binding signal in the assay with HSF1 stood at 0.9; with ELF2 it was 1.03.

For the sequence TCGTTT, the binding signal in the assay with HSF1 was 1.02; with ELF2, 1.18.

Regarding ATCCTT, the binding signal came to 1.98 with HSF1 and 1.65 in the assay with ELF2.

Turning to CATGGC, the binding signal stood at 0.812 with HSF1 and 0.955 with ELF2.

Take ATGCCA: the values for the binding signal in the assay with HSF1 and with ELF2 were 0.933 and 0.965, respectively.

Regarding TTGTAT, the results for the binding signal with HSF1 and in the assay with ELF2 were 1.21 and 1.26, respectively.

As for ATATAT, the binding signal was 1.31 with HSF1 and 1.44 with ELF2.

Turning to CTTATT, the binding signal in the assay with HSF1 came to 1.87; in the assay with ELF2, 1.48.

As to CGTTTG, the binding signal with HSF1 worked out at 0.814; with ELF2, 1.02.

For TTGGAT, the binding signal came out at 1.21 with HSF1 and 0.942 with ELF2.

With TATGGG, the binding signal with HSF1 and in the assay with ELF2 was 1.1 in each case.

For AAACGC, the binding signal in the assay with HSF1 was found to be 1.05; with ELF2, 1.29.

Consider GTACAG, for which the binding signal was 0.776 with HSF1 and 0.957 in the assay with ELF2.

As for TGCATC, the binding signal with HSF1 came to 0.938; in the assay with ELF2, 1.36.

Regarding CACTAC, the values for the binding signal in the assay with HSF1 and in the assay with ELF2 were 0.963 and 1.32, respectively.

For the sequence TAATGG, the binding signal with HSF1 was found to be 1.46; in the assay with ELF2, 1.25.

In the case of GAAGCC, the figures for the binding signal in the assay with HSF1 and in the assay with ELF2 were 0.872 and 1.16, respectively.

For the sequence CAAACT, the values for the binding signal with HSF1 and with ELF2 were 0.992 and 1.13, respectively.

Turning to AGCGAC, the values for the binding signal with HSF1 and with ELF2 were 0.931 and 1.14, respectively.

As to GCGCGT, the binding signal with HSF1 stood at 0.753; with ELF2, 0.825.

As for GATACA, the binding signal with HSF1 is 0.789; with ELF2, 1.01.

As for AAGCCT, the binding signal with HSF1 stood at 1.5; with ELF2, 1.23.

Take ACATGA: the binding signal with HSF1 stood at 0.812; with ELF2, 0.93.

In the case of TTTGGG, the binding signal stood at 1.36 with HSF1 and 1.25 with ELF2.

For TGGGGT, the binding signal with HSF1 came to 0.898; in the assay with ELF2, 0.987.

Take GTGTAA: the binding signal worked out at 0.848 in the assay with HSF1 and 0.887 with ELF2.

For GGATGG, the binding signal with HSF1 worked out at 0.837; with ELF2, 1.05.

Regarding GTGTAC, the figures for the binding signal with HSF1 and with ELF2 were 0.72 and 0.914, respectively.

With CCGGAT, the binding signal with HSF1 worked out at 1.63; in the assay with ELF2, 4.27.

AACGGT: the binding signal with HSF1 amounted to 0.812; with ELF2 it was 0.904.

With ACCTTT, the binding signal came out at 1.36 in the assay with HSF1 and 1.34 in the assay with ELF2.

For the sequence TAGGCA, the binding signal in the assay with HSF1 was found to be 0.943; in the assay with ELF2, 0.961.

For TGAACG, the binding signal amounted to 0.91 in the assay with HSF1 and 0.873 with ELF2.

As for TACGTC, the binding signal amounted to 0.967 in the assay with HSF1 and 1.21 with ELF2.

As for CCGTTA, the results for the binding signal with HSF1 and with ELF2 were 0.857 and 0.886, respectively.

Regarding TACTCA, the values for the binding signal with HSF1 and in the assay with ELF2 were 1.12 and 1.13, respectively.

Turning to ACAGCC, the binding signal in the assay with HSF1 is 0.841; in the assay with ELF2, 0.996.

CACCTG: the binding signal in the assay with HSF1 was 0.808; with ELF2, 0.9.

For the sequence CCTACC, the results for the binding signal in the assay with HSF1 and in the assay with ELF2 were 0.927 and 1.35, respectively.

Turning to AGTAAC, the figures for the binding signal in the assay with HSF1 and in the assay with ELF2 were 0.827 and 1.06, respectively.

Take AGATAA: the values for the binding signal with HSF1 and with ELF2 were 1.68 and 1.02, respectively.

Regarding TGGGAT, the results for the binding signal with HSF1 and with ELF2 were 1.47 and 1.17, respectively.

For CGCACG, the results for the binding signal with HSF1 and in the assay with ELF2 were 0.914 and 0.967, respectively.

With GCCAAC, the binding signal in the assay with HSF1 was found to be 0.733; in the assay with ELF2, 0.863.

Consider CAGCTA, for which the binding signal turned out to be 0.952 with HSF1 and 0.984 in the assay with ELF2.

Turning to ATGCTA, the binding signal in the assay with HSF1 is 1.46; with ELF2, 1.24.

As for AGATGA, the binding signal in the assay with HSF1 came out at 1.24; with ELF2, 1.03.

As for TGATAC, the values for the binding signal in the assay with HSF1 and with ELF2 were 0.973 and 1.09, respectively.

Turning to ACGCGT, the results for the binding signal with HSF1 and with ELF2 were 0.84 and 0.866, respectively.

For TCGTCG, the binding signal with HSF1 came out at 0.874; with ELF2, 0.868.

With GCTACA, the binding signal stood at 0.94 in the assay with HSF1 and 1.16 in the assay with ELF2.

ATCAAG: the binding signal in the assay with HSF1 worked out at 1.03; in the assay with ELF2, 0.899.

With ACGACA, the results for the binding signal with HSF1 and with ELF2 were 0.963 and 1.05, respectively.

As for TAGGTC, the binding signal worked out at 0.857 with HSF1 and 0.925 with ELF2.

TGTGCC: the results for the binding signal in the assay with HSF1 and with ELF2 were 0.893 and 1.05, respectively.

On to AAGCGG, for which the binding signal in the assay with HSF1 came to 0.911; with ELF2 it was 1.29.

Regarding GCTCTC, the values for the binding signal with HSF1 and with ELF2 were 1.42 and 1.36, respectively.

Turning to ATTACC, the binding signal with HSF1 was determined as 1.58; in the assay with ELF2, 1.3.

Consider CTGCTG, for which the binding signal in the assay with HSF1 stood at 1.09; with ELF2, 1.21.
